Assay results reported in patent US12539301B2, “Compound external preparation for treating alopecia areata and preparation method therefor” (CHANGSHA JINGYI PHARMACEUTICAL TECHNOLOGY CO., LTD, priority 2020, dated 2026).
Like-named read-outs stand apart in the source and are kept apart here. At least one compound was matched to its structure with a doubt left.

Assay type: physicochemical
Details: 100 parts per 1 part API, 30 min
Excerpt: Dissolution condition and dissolution required for quantifying the API in a quantitive solvent were used as preliminary evaluation indexes, and a solvent capable of dissolving both active ingredients is preferred. Icon meaning: x: insoluble (this system is a white opaque suspension with visible white solid particles); ∘: incompletely soluble (this system is partially transparent, with white visible bulk solids or suspended solids); √ completely soluble (the system is a completely transparent solution, without suspended substances and solid insoluble substances); and /: not investigated.

Measured: Dissolution condition

Nc1cc(N2CCCCC2)nc(N)[n+]1[O-] [Minoxidil]
✓: Example 9: Stearic acid, heating (60° C.), after cooling | Example 11: Propylene glycol, heating (60° C.), after cooling | Example 11: Propylene glycol, room temperature (25° C.) | Example 13: Diethylene glycol monoethyl ether, heating (60° C.), after cooling | Example 16-b: Propylene glycol:water = 1:9 (w/w), heating (60° C.), after cooling | Example 16-c: Propylene glycol:water = 3:7 (w/w), heating (60° C.), after cooling | Example 16-c: Propylene glycol:water = 3:7 (w/w), room temperature (25° C.) | Example 16-d: Propylene glycol:water = 5:5 (w/w), heating (60° C.), after cooling | Example 16-d: Propylene glycol:water = 5:5 (w/w), room temperature (25° C.) | Example 16-e: Propylene glycol:water = 7:3 (w/w), heating (60° C.), after cooling | Example 16-e: Propylene glycol:water = 7:3 (w/w), room temperature (25° C.) | Example 16-f: Propylene glycol:water = 9:1 (w/w), heating (60° C.), after cooling | Example 16-f: Propylene glycol:water = 9:1 (w/w), room temperature (25° C.) | Example 16-g: Propylene glycol:water = 11:1 (w/w), heating (60° C.), after cooling | Example 16-g: Propylene glycol:water = 11:1 (w/w), room temperature (25° C.) | Example 17: Propylene glycol:water:ethanol = 5:2:3 (w/w), heating (60° C.), after cooling | Example 17: Propylene glycol:water:ethanol = 5:2:3 (w/w), room temperature (25° C.)
